Test system: CLL cells
Assay: cells
Conditions: Homo sapiens, CLL cell, 72 h, read-out: effective dose for 50% killing (ED50)

CC/C(=C(\c1ccccc1)c1ccc(OCCN(C)C)cc1)c1ccccc1 [TAM, tamoxifen]
EC50: 6.5 µM

From US8980569B2, “Chronic lymphocytic leukemia prognosis and treatment” (Duke University, priority 2007, dated 2015)
